From paper PMC10648572
These are yes or no findings as the source states them, for the method shown. Binding seen in cells or lysates may run through a third protein. Some entries that bind do so weakly or less than the wild type.

Sequences of proteins named here, by UniProt entry; tags and fusion partners are left off.
UniProt P15056: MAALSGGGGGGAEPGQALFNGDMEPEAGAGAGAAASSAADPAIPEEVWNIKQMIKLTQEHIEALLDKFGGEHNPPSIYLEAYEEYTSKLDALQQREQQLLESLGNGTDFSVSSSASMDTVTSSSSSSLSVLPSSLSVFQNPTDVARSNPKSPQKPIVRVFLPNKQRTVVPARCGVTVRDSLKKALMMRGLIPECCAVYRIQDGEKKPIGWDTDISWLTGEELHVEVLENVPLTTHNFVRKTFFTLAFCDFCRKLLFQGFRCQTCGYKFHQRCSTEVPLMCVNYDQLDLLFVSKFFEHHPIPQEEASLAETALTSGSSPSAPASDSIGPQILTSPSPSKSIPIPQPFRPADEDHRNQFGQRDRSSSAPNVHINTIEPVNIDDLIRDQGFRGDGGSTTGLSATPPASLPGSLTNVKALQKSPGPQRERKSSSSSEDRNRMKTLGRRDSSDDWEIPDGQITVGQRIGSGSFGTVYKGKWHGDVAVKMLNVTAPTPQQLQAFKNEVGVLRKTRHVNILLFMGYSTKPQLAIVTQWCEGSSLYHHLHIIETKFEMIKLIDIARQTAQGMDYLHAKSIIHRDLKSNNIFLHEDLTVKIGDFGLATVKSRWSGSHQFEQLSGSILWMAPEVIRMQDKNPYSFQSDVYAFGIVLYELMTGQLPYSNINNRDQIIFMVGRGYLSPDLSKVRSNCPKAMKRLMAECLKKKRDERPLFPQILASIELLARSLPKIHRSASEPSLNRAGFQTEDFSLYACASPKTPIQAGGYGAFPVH
UniProt Q9H1X3: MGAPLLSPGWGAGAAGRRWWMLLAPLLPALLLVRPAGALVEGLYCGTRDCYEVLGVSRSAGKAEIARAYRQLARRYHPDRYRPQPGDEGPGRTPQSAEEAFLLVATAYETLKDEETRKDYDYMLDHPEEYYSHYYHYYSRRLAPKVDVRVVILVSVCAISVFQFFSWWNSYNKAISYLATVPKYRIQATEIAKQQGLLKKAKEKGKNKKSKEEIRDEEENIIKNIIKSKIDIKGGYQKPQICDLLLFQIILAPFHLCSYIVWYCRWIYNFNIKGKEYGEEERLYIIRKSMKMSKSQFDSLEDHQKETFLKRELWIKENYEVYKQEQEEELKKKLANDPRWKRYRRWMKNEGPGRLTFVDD

Columns and labels:
[1] = biological target: T1, RNF149 as used in the co-immunoprecipitation experiments (construct not stated) (human) (UniProt Q8NC42); assay: co-IP; not described; result told only in the discussion ('our Co-IP experiments')
T1 sequence: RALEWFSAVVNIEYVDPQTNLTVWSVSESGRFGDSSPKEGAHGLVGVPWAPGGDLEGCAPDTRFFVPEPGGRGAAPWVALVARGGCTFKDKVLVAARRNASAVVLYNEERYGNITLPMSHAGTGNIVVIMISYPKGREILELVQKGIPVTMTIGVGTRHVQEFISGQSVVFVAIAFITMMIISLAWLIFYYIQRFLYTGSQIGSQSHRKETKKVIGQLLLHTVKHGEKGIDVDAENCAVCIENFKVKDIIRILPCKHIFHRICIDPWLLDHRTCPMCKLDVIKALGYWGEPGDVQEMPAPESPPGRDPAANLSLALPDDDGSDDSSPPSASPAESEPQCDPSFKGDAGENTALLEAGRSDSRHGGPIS

[2] = biological target: T1, RNF149 as used in the co-immunoprecipitation experiments (construct not stated) (human); assay: co-IP; cells transfected with indicated plasmids; NETN lysis buffer; IP and WB (Figure 7H)

binding [1]	binding [2]	Substance
no binding	–	B-RAF (from UniProt P15056 1-766)
–	binds	DNAJC25 as used in the co-immunoprecipitation of Figure 7H (from UniProt Q9H1X3 1-360)
